What all share (experiment): PRISMA enrichment of interactor (LFQ) in peptide spot vs all other peptide spots (log2 fold change); higher = stronger / more specific binding of the interactor to the peptide
For one assay, the target named is ANP32A, P39687. Here is the method:
(§1)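 PRISMA: 15-aa overlapping tiles (offset 8 aa) of 60 microproteins, plus SOS1/GLUT1 control peptides, were spot-synthesized on cellulose membranes in triplicate. Membranes were incubated with benzonase-treated HEK293T lysate, and bound proteins were identified by LC-MS/MS with LFQ. Enrichment is the log2 fold change of each protein in one spot versus all other spots. Only interactors passing the significance cutoff are listed.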

The chains behind the UniProt entries cited, without tags or fusion partners.
HIST1H1E, P10412, UniProt P10412, whole entry: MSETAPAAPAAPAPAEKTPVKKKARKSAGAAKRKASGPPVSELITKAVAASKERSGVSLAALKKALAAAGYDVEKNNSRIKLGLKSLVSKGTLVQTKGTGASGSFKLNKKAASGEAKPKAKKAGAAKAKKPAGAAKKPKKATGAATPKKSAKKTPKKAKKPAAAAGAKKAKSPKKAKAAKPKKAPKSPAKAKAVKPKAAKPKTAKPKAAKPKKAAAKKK
SET, Q01105, UniProt Q01105, whole entry: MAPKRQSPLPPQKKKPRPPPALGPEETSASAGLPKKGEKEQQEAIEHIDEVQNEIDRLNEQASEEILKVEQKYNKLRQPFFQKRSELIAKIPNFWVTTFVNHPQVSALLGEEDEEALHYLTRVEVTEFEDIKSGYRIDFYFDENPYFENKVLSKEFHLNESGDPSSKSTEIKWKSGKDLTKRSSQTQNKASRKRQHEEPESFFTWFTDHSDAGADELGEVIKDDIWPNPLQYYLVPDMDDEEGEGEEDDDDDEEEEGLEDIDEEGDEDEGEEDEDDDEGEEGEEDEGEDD
SRSF1, Q07955, UniProt Q07955, whole entry: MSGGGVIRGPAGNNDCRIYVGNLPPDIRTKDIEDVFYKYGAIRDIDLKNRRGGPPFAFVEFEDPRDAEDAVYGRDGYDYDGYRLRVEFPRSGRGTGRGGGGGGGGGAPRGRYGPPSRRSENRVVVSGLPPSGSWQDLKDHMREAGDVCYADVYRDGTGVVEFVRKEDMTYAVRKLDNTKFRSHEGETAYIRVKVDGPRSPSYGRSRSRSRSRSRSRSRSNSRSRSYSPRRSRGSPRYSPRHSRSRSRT
NDUFS6, O75380, UniProt O75380, whole entry: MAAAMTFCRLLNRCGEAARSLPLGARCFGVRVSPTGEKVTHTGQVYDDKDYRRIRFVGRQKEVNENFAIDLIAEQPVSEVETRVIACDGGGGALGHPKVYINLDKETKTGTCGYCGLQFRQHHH
NPM1, P06748, UniProt P06748, whole entry: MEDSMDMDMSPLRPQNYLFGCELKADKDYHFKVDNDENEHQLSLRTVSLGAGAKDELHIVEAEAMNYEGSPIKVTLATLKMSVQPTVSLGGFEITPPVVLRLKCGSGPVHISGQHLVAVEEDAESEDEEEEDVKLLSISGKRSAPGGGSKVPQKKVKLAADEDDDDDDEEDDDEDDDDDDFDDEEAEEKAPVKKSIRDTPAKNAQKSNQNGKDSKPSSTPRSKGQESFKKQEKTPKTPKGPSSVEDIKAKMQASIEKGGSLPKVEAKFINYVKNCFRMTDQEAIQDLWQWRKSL
RBBP4, Q09028, UniProt Q09028, whole entry: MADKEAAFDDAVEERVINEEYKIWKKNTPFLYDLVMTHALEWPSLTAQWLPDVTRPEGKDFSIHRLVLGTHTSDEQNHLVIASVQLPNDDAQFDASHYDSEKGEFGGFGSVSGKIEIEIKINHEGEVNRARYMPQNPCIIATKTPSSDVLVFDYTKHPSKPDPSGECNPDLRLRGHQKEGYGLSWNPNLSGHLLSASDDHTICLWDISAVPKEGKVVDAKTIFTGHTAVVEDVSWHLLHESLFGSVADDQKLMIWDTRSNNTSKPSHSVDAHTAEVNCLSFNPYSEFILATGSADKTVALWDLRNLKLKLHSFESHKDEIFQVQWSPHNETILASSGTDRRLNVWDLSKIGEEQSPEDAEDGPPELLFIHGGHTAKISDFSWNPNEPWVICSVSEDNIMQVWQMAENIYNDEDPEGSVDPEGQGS
SLAIN1, Q8ND83, UniProt Q8ND83, whole entry: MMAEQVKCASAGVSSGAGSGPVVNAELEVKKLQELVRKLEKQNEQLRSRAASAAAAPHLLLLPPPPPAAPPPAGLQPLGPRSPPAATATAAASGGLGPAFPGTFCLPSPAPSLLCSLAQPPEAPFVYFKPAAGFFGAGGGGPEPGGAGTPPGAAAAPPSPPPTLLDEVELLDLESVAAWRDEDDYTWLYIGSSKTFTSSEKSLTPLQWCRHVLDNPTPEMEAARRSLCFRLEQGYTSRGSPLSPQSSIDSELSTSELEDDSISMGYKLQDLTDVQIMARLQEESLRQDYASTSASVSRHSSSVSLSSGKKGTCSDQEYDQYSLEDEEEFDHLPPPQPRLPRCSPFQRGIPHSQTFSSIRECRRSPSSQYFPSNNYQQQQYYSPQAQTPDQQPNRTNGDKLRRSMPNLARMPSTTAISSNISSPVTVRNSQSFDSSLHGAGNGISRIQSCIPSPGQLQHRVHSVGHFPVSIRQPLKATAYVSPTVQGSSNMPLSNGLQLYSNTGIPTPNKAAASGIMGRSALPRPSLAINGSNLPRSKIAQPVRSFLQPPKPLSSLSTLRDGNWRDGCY
SMARCD2, Q92925, UniProt Q92925, whole entry: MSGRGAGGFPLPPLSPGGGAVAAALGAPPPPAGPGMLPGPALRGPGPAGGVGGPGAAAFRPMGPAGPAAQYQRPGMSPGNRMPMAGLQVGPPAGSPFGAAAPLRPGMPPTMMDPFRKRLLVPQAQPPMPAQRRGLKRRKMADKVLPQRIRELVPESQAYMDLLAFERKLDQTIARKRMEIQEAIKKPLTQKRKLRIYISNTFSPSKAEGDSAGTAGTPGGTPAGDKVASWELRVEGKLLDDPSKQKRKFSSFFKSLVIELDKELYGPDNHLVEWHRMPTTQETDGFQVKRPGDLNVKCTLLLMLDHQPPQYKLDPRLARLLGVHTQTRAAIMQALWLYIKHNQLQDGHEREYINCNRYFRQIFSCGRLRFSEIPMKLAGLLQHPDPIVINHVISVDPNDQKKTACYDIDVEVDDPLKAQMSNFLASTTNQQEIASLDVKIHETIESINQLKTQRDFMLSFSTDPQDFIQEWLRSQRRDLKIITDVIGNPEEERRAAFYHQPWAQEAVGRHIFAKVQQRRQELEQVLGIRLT
BCCIP, Q9P287, UniProt Q9P287, whole entry: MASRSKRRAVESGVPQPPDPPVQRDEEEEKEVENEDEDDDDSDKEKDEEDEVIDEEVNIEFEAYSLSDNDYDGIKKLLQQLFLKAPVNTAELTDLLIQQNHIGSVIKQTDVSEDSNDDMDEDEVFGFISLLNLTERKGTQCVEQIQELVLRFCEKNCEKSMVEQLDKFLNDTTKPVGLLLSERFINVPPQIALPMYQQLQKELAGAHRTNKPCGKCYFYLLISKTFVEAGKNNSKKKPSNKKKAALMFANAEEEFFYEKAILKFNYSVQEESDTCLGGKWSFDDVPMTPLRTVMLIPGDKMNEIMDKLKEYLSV
GRWD1, Q9BQ67, UniProt Q9BQ67, whole entry: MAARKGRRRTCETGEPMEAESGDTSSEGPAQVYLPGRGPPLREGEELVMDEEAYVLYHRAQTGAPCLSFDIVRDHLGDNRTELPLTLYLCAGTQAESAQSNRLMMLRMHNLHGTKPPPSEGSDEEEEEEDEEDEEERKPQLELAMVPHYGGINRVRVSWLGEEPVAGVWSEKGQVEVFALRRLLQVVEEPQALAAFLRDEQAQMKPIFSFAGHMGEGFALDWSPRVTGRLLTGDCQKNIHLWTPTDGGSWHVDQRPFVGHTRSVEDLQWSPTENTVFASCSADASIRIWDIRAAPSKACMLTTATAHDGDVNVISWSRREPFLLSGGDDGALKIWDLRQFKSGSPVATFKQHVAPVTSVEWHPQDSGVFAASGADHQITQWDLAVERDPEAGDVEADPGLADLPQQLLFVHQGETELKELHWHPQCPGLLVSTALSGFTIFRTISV
NDUFA8, P51970, UniProt P51970, whole entry: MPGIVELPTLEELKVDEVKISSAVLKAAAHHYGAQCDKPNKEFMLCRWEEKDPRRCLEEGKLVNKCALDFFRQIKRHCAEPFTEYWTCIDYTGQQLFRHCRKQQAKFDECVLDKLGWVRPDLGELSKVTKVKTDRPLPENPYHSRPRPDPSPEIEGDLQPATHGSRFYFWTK
PHAX, Q9H814, UniProt Q9H814, whole entry: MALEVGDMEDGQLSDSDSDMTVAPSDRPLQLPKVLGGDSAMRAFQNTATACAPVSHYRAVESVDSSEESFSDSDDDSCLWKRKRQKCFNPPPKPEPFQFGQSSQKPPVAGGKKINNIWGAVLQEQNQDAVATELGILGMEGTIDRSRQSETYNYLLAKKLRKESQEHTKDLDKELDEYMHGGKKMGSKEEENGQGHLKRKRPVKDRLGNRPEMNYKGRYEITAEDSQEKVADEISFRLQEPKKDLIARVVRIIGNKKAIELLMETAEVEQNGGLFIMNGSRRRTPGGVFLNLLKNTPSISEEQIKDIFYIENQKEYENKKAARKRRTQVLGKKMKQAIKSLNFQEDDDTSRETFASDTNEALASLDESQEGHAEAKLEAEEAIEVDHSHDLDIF
ATP6V0D1, P61421, UniProt P61421, whole entry: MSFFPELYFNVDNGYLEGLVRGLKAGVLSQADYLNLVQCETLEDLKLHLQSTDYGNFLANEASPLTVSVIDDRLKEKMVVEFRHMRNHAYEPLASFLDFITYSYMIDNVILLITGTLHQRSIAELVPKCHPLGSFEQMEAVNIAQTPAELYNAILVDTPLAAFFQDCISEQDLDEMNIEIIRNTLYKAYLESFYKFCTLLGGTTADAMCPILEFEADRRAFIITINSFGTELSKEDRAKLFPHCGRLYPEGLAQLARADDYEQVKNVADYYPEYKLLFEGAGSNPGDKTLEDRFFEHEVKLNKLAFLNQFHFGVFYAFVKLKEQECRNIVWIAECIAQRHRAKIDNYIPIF
CUL4A, Q13619, UniProt Q13619, whole entry: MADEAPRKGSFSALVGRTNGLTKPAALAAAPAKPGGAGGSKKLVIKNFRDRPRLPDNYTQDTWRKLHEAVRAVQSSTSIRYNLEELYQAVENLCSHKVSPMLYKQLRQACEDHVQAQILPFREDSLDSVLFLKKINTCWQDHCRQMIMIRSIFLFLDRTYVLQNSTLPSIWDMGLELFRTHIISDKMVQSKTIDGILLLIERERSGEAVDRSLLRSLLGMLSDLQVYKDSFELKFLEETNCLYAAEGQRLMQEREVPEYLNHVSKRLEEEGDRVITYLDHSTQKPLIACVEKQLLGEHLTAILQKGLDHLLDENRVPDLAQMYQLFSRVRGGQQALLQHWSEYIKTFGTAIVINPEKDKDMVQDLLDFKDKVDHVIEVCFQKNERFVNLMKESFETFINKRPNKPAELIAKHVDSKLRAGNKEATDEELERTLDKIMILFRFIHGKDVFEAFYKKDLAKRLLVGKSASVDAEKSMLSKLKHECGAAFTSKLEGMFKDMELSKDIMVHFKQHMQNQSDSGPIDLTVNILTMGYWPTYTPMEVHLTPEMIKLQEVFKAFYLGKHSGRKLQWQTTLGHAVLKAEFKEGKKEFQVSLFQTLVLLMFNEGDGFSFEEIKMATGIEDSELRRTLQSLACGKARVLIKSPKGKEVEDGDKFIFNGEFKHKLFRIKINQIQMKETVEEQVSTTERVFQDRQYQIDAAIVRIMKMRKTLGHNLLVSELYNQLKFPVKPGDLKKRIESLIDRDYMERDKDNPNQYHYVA
YY1, P25490, UniProt P25490, whole entry: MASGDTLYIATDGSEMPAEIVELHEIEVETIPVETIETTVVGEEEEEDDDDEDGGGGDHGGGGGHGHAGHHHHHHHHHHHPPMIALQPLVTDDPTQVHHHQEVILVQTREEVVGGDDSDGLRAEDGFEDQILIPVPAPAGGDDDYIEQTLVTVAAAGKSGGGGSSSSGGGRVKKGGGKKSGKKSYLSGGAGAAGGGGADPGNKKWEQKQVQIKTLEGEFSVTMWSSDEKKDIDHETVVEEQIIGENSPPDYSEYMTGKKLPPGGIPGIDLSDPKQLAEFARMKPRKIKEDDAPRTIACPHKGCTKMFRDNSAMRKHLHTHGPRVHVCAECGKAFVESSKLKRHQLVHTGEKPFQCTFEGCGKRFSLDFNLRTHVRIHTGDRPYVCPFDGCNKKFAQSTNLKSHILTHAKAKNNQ

For the next assay, the target named is C1QBP, Q07021. As to the method: as §1
Another assay has as its target CLN6, Q9NWW5. Here is the method:
as §1

The target in the next assay is HIST1H1E, P10412. Here is the method:
as §1

The next assay has as its target RAB8A, P61006. As to the method: as §1
Another assay has as its target SBDS, Q9Y3A5. As to the method: as §1
The next assay deals with SET, Q01105. As to the method: as §1
For a further assay, the target named is SRSF1, Q07955. As to the method:
as §1

The next assay concerns the target SRSF2, Q01130. Here is the method: as §1
A further assay deals with SRSF5, Q13243. As to the method: as §1
The target in another assay is SRSF6, Q13247. As to the method: as §1
For another assay, the target named is SRSF7, Q16629. As to the method: as §1
For the next assay, the target named is ANP32B, Q92688. As to the method: as §1
The target in a further assay is COPS2, P61201. As to the method: as §1
Substrate in assay [1]: CP, P00450
As to the method: as §1

The next assay addresses ITIH2, P19823. Here is the method: as §1
The target in the next assay is LMF2, Q9BU23. Here is the method:
as §1

Another assay has as its target MAT1A, Q00266. As to the method:
as §1

The target of another assay is NDUFS6, O75380. As to the method:
as §1

In another assay the target is NPM1, P06748. Here is the method:
as §1

The target in the next assay is RBBP4, Q09028. Here is the method: as §1
In another assay the target is SLAIN1, Q8ND83. Here is the method: as §1
The target of the next assay is SLC37A4, O43826. As to the method: as §1
For the next assay, the target named is STRBP, Q96SI9. Here is the method:
as §1

The target of another assay is PTMA, P06454. Here is the method:
as §1

A further assay deals with BSG, P35613. Here is the method: as §1
A further assay has as its target CGGBP1, Q9UFW8. As to the method: as §1
The next assay addresses CYC1, P08574. As to the method: as §1
Another assay deals with ETFA, P13804. Here is the method: as §1
In the next assay the target is MRPL18, Q9H0U6. As to the method: as §1
The next assay has as its target NAP1L1, P55209. As to the method: as §1
A further assay has as its target SCAF11, Q99590. Here is the method:
as §1

In another assay the target is URB1, O60287. As to the method:
as §1

Another assay deals with CKAP2, Q8WWK9. As to the method:
as §1

The target of another assay is CMPK1, P30085. As to the method:
as §1

For the next assay, the target named is IDH3B, O43837. As to the method: as §1
A further assay addresses PRKCSH, P14314. Here is the method:
as §1

The next assay deals with SERF1B, O75920. As to the method:
as §1

In another assay the target is SLC25A24, Q6NUK1. Here is the method:
as §1

The next assay addresses SMARCD2, Q92925. As to the method:
as §1

The target of another assay is TXNDC5, Q8NBS9. Here is the method:
as §1

The target of another assay is ZNF503, Q96F45. Here is the method: as §1
Substrate in assay [2]: BCCIP, Q9P287
As to the method:
as §1

The next assay has as its target CTNNBL1, Q8WYA6. As to the method: as §1
In another assay the target is GRWD1, Q9BQ67. Here is the method: as §1
Another assay concerns the target IGHMBP2, P38935. Here is the method:
as §1

The target in the next assay is ILF2, Q12905. Here is the method: as §1
The next assay has as its target LSM5, Q9Y4Y9. Here is the method:
as §1

Another assay addresses NDUFA8, P51970. As to the method:
as §1

The next assay addresses PHAX, Q9H814. As to the method: as §1
In a further assay the target is PSME3, P61289. Here is the method:
as §1

In the next assay the target is SLC25A1, P53007. As to the method:
as §1

The target in a further assay is ANP32E, Q9BTT0. Here is the method: as §1
For another assay, the target named is ATP6V0D1, P61421. As to the method: as §1
The next assay has as its target CUL4A, Q13619. Here is the method:
as §1

The next assay deals with CYB5B, O43169. As to the method:
as §1

The target of the next assay is DDX20, Q9UHI6. Here is the method: as §1
A further assay deals with HNRNPAB, Q99729. As to the method: as §1
The next assay has as its target MRPS35, P82673. Here is the method: as §1
For a further assay, the target named is ODF2, Q5BJF6. As to the method: as §1
The next assay has as its target PPIG, Q13427. As to the method: as §1
In another assay the target is SPTAN1, Q13813. As to the method:
as §1

The next assay has as its target YWHAG, P61981. As to the method:
as §1

Another assay deals with BRD2, P25440. As to the method: as §1
Another assay addresses CCT8, P50990. Here is the method:
as §1

For another assay, the target named is GRB2, P62993. Here is the method: as §1
In the next assay the target is MRPL9, Q9BYD2. Here is the method:
as §1

In a further assay the target is PPHLN1, Q8NEY8. Here is the method: as §1
For another assay, the target named is TMEM214, Q6NUQ4. As to the method: as §1
For the next assay, the target named is TRMT5, Q32P41. Here is the method: as §1
The target in a further assay is YY1, P25490. Here is the method:
as §1

± gives the standard deviation of the averaged measurements. The list shows a part of the results. Only hits are listed; about a third recur on repeated control peptides.

ARGGRDEEGRRRAAS [PVT1]: the “PRISMA enrichment of interactor (log2)” value worked out at 6.36 with ANP32A, P39687; 7.74 with C1QBP, Q07021; 4.33 with CLN6, Q9NWW5; 7.32 with HIST1H1E, P10412; 5.96 in the assay with RAB8A, P61006; 5.51 with SBDS, Q9Y3A5. Besides, the “PRISMA enrichment of interactor (log2)” value with SET, Q01105 came out at 6.31; in the assay with SRSF1, Q07955, 6.64; in the assay with SRSF2, Q01130 it was 6.79; with SRSF5, Q13243, 5.76; with SRSF6, Q13247, 5.89; in the assay with SRSF7, Q16629, 7.16.
For the molecule RKRNHPARSQDTFGG [RP11-464C19.3], the “PRISMA enrichment of interactor (log2)” value with ANP32A, P39687 worked out at 6.95; with ANP32B, Q92688, 5.75; with C1QBP, Q07021, 7.12; with COPS2, P61201, 4.88; in [1], 3.99; in the assay with ITIH2, P19823 it was 5.07. Further, the “PRISMA enrichment of interactor (log2)” value with LMF2, Q9BU23 worked out at 5.06; in the assay with MAT1A, Q00266, 5.25; with NDUFS6, O75380, 4.49; with NPM1, P06748, 4.84; with RAB8A, P61006, 4.82; with RBBP4, Q09028, 5.36. In addition, the “PRISMA enrichment of interactor (log2)” value with SET, Q01105 is 6.53; in the assay with SLAIN1, Q8ND83 it was 4.55; with SLC37A4, O43826, 4.08; with SRSF2, Q01130, 5.33; with STRBP, Q96SI9, 5.36.
Turning to LKKVLPRKKKGNLME, the “PRISMA enrichment of interactor (log2)” value with ANP32A, P39687 is 6.38; with PTMA, P06454, 5.45.
As for GTGKRDLQRRHGFQK, the “PRISMA enrichment of interactor (log2)” value with ANP32B, Q92688 worked out at 5.8; in the assay with BSG, P35613, 5.5; with CGGBP1, Q9UFW8, 4.91; with CYC1, P08574, 8.72; with ETFA, P13804, 6.86; with MRPL18, Q9H0U6, 4.45. The “PRISMA enrichment of interactor (log2)” value in the assay with NAP1L1, P55209 was determined as 4.48; with SCAF11, Q99590 it was 5.72; with URB1, O60287, 7.05.
Take KRECEECKQSAKNKP: the “PRISMA enrichment of interactor (log2)” value with ANP32A, P39687 came to 5.98; with CKAP2, Q8WWK9, 4.88; with CMPK1, P30085, 8.4; in the assay with IDH3B, O43837 it was 5.26; with PRKCSH, P14314, 4.8; with SERF1B, O75920, 5.45. Besides, the “PRISMA enrichment of interactor (log2)” value with SLC25A24, Q6NUK1 came to 4.43; in the assay with SMARCD2, Q92925 it was 3.7; with TXNDC5, Q8NBS9, 5.81; with ZNF503, Q96F45, 4.11.
With RRGTPSRAHRSTART [SLCO5A1], the “PRISMA enrichment of interactor (log2)” value with ANP32A, P39687 was determined as 5.68; in assay [2] it was 5.29; with C1QBP, Q07021, 6.58; with CTNNBL1, Q8WYA6, 4.97; in the assay with GRWD1, Q9BQ67 it was 4.77; in the assay with IGHMBP2, P38935, 5.97. Besides, the “PRISMA enrichment of interactor (log2)” value came to 4.8 with ILF2, Q12905; 3.97 in the assay with LSM5, Q9Y4Y9; 6.63 ± 1.1 with NAP1L1, P55209; 4.57 with NDUFA8, P51970; 4.18 with PHAX, Q9H814; 4.64 with PSME3, P61289. Also, the “PRISMA enrichment of interactor (log2)” value stood at 5.88 with SET, Q01105 and 5.42 in the assay with SLC25A1, P53007.
KKKGNLMETCVYQME: the “PRISMA enrichment of interactor (log2)” value in the assay with ANP32A, P39687 turned out to be 7.99; with ANP32B, Q92688, 6.25; with ANP32E, Q9BTT0, 5.33; with ATP6V0D1, P61421, 6.29; in the assay with CUL4A, Q13619, 3.78; with CYB5B, O43169, 5.12. In addition, the “PRISMA enrichment of interactor (log2)” value was 4.75 in the assay with DDX20, Q9UHI6; 4.83 with HNRNPAB, Q99729; 5.99 with MRPS35, P82673; 6.24 with ODF2, Q5BJF6; 4.9 with PPIG, Q13427; 6.23 in the assay with SET, Q01105. In addition, the “PRISMA enrichment of interactor (log2)” value with SPTAN1, Q13813 is 6.26; in the assay with YWHAG, P61981, 6.35.
With MKAENRCRRRPPPAL [RNF10], the “PRISMA enrichment of interactor (log2)” value turned out to be 5.98 with ANP32B, Q92688; 4.36 with BRD2, P25440; 5.79 with C1QBP, Q07021; 4.75 with CCT8, P50990; 4.72 with GRB2, P62993; 6.77 with MRPL9, Q9BYD2. Further, the “PRISMA enrichment of interactor (log2)” value with PPHLN1, Q8NEY8 was found to be 5.76; with RAB8A, P61006, 6.65; with SRSF5, Q13243, 4.88; in the assay with TMEM214, Q6NUQ4 it was 6.43; in the assay with TRMT5, Q32P41 it was 5.54; in the assay with YY1, P25490 it was 5.76.

The values are drawn from the supplement of paper PMC10032668.
